# Reference: US20080213813A1, “Histone deacetylase inhibitor and use thereof” (priority 2002, published 2008)
# Tested on: HeLa cells
# Assay: Microtubule stability against Colcemid in HeLa cells (immunofluorescence)
# Type: cell-based, human
# Conditions: 1 μM Colcemid 15 minutes, no pretreatment, FIG. 11
# Method: HeLa cells were plated on the Lab-TekII Chambered Coverglass (Nunc), and were subjected to:
# (1) treatment for 16 hours with 1 μM Paclitaxel (Sigma), a microtubule polymerizing agent;
# (3) the introduction of HDAC6 antisense oligonucleotide No. 16 at a final concentration of 200 nM with OligofectAMINE followed by a 24-hour culture.
# Colcemid (a derivative of colchicine) was dissolve in ethanol, and added to the medium to the final concentration of 1 μM, and the cells were incubated for 15 minutes (a time in which the microtubule is almost completely disappears without pre-treatment). […]
smiles,measurement,value
CN[C@H]1CCc2cc(OC)c(OC)c(OC)c2-c2ccc(OC)c(=O)cc21 [Colcemid],microtubules in cells not pretreated,the microtuble disappeared
